Record: PubChem BioAssay AID504791 (Drosophila RNAi Screening Center, 2011)
The screen tested about 23,000 reagents; below is an unselected part of those that have a named target and a result. Of all reagents, 199 (0.86%) are marked active. 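Plate-scaled ratios behind the calls are not deposited; printed light signals are raw; many rows marked increased or decreased are still called inactive.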 Names joined by + are all predicted targets of the reagent. The record does not give: the direction of the score.

Assay: 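Genes whose knock-down strengthens or weakens small-RNA reporter silencing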 (primary screen)
System: Drosophila S2-derived reporter cells
Knock-down reagent: long dsRNA against Drosophila genes, about 150-250 ng dsRNA per well (siRNA assay); about 80-120 ng (miRNA assay)
Time to read-out: about 5 days (siRNA assay); about 4 days (miRNA assay)
Challenge: copper sulfate induction of reporters: 25 µM (siRNA assay); 200 mM stated (miRNA assay), 1-2 days before reading
Measured: 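Dual luciferase assay: Renilla to firefly signal ratio in each well, scaled to the mean ratio of its plate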
Hit rule: 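a well was a first-pass pick when its plate-scaled ratio rose above 1.5 (siRNA assay) or 1.6 (miRNA assay), or dropped below 0.6; a gene counted only if two separate dsRNAs agreed on retest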

gene | dsRNA | stable siRNA reporter change | miRNA reporter change | stable assay Renilla, run 1 (luminescence) | stable assay firefly, run 1 (luminescence) | outcome
TrpRS-m (Tryptophanyl-tRNA synthetase, mitochondrial) | DRSC10848 | – | – | 8364 | 2.84e5 | inactive
rudhira | DRSC19821 | – | – | 5955 | 2.69e5 | inactive
rudhira | DRSC22111 | – | – | 9546 | 5.97e5 | inactive
rudhira | DRSC23144 | – | – | 5435 | 3.60e5 | inactive
dan (distal antenna) | DRSC14406 | – | – | 11170 | 3.78e5 | inactive
CG4598 | DRSC02763 | – | – | 6886 | 3.82e5 | inactive
CG15923 | DRSC15129 | – | – | 10644 | 4.40e5 | inactive
ari-1 (ariadne 1) | DRSC20308 | – | – | 4916 | 4.25e5 | inactive
ari-1 (ariadne 1) | DRSC21603 | – | – | 9623 | 4.12e5 | inactive
P58IPK | DRSC16404 | – | – | 7087 | 4.35e5 | inactive
nrv3 (nervana 3) | DRSC03097 | – | – | 2515 | 3.16e5 | inactive
Gr66a (Gustatory receptor 66a) | DRSC10783 | – | – | 6735 | 4.10e5 | inactive
CG16790 | DRSC15156 | – | – | 6732 | 4.51e5 | inactive
dpr14 (defective proboscis extension response 14) | DRSC17767 | – | – | 6724 | 3.54e5 | inactive
CG2017 | DRSC12293 | – | – | 8520 | 3.82e5 | inactive
CG10300 | DRSC14225 | – | – | 6191 | 2.81e5 | inactive
CG18507 | DRSC01334 | – | – | 4451 | 3.02e5 | inactive
CG18507 | DRSC01914 | – | – | 8035 | 4.99e5 | inactive
Mur89F (Mucin related 89F) | DRSC15544 | – | – | 6984 | 3.38e5 | inactive
edl (ETS-domain lacking) | DRSC06516 | – | – | 10895 | 3.93e5 | inactive
CG11349 | DRSC08179 | – | – | 5574 | 3.63e5 | inactive
zormin | DRSC07969 | – | – | 4551 | 3.76e5 | inactive
zormin | DRSC08210 | – | – | 6347 | 3.20e5 | inactive
zormin | DRSC08212 | – | – | 7031 | 3.91e5 | inactive
zormin | DRSC08213 | – | – | 5656 | 3.32e5 | inactive
zormin | DRSC08297 | – | – | 6263 | 3.65e5 | inactive
zormin | DRSC08571 | – | – | 7519 | 2.17e5 | inactive
zormin | DRSC22483 | – | – | 2827 | 3.25e5 | inactive
Idh (Isocitrate dehydrogenase) | DRSC10779 | – | – | 7615 | 4.79e5 | inactive
Golgin245 (Golgin-245) | DRSC04374 | – | – | 95891 | 5.28e5 | inactive
Golgin245 (Golgin-245) | DRSC22012 | – | – | 11553 | 7.07e5 | inactive
CG4042 | DRSC11751 | – | – | 7454 | 3.61e5 | inactive
Rack1 (Receptor of activated protein kinase C 1) | DRSC03405 | – | – | 5811 | 3.33e5 | inactive
Tollo | DRSC11305 | – | – | 8378 | 4.10e5 | inactive
CG1894 | DRSC15396 | – | – | 6958 | 3.88e5 | inactive
LysE (Lysozyme E) | DRSC08675 | – | – | 6670 | 4.21e5 | inactive
slim (scruin like at the midline) | DRSC06921 | – | – | 9091 | 3.30e5 | inactive
Rbp1 (RNA-binding protein 1) | DRSC16817 | – | – | 10839 | 4.14e5 | inactive
Daxx (Daxx-like protein) | DRSC03255 | – | – | 13244 | 1.71e6 | inactive
Grx1 (Glutaredoxin 1) | DRSC10727 | – | – | 6823 | 4.19e5 | inactive
Dscam3 (Down syndrome cell adhesion molecule 3) | DRSC14525 | – | – | 7392 | 3.62e5 | inactive
Dscam3 (Down syndrome cell adhesion molecule 3) | DRSC16376 | – | – | 7894 | 4.47e5 | inactive
brp (bruchpilot) | DRSC06245 | – | – | 5447 | 3.24e5 | inactive
brp (bruchpilot) | DRSC06246 | – | – | 6552 | 3.34e5 | inactive
brp (bruchpilot) | DRSC06801 | – | – | 6287 | 3.43e5 | inactive
brp (bruchpilot) | DRSC21893 | – | – | 8299 | 6.65e5 | inactive
cato (cousin of atonal) | DRSC07589 | – | – | 7246 | 3.55e5 | inactive
hoe1 (hoepel1) | DRSC00265 | – | – | 12875 | 6.13e5 | inactive
hoe1 (hoepel1) | DRSC00333 | – | – | 7296 | 4.09e5 | inactive
hoe1 (hoepel1) | DRSC00353 | – | reporter ratio lowered past the hit cutoff | 7590 | 3.95e5 | active
CG7294 | DRSC03041 | – | – | 7343 | 4.76e5 | inactive
CG32835 (retired record) | DRSC22693 | – | – | 5308 | 5.69e5 | inactive
CG4213 | DRSC00641 | – | – | 7811 | 4.84e5 | inactive
CG2217 + CG42740 | DRSC14141 | – | – | 7283 | 3.33e5 | inactive
CG1236 | DRSC12203 | – | – | 5968 | 3.98e5 | inactive
wts (warts) | DRSC17096 | reporter ratio raised past the hit cutoff | – | 5288 | 2.03e5 | inactive
wts (warts) | DRSC22975 | reporter ratio raised past the hit cutoff | – | 3671 | 1.60e5 | inactive
Blos1 | DRSC05970 | – | – | 6814 | 3.15e5 | inactive
CG4045 | DRSC18518 | – | – | 9688 | 5.48e5 | inactive
CG15525 | DRSC15062 | – | – | 1336 | 63452 | inactive
CG16815 | DRSC02521 | – | – | 7640 | 3.87e5 | inactive
CG43980 | DRSC11500 | – | – | 5366 | 3.91e5 | inactive
CG43980 | DRSC11646 | – | – | 7493 | 4.82e5 | inactive
CG31229 | DRSC13309 | – | – | 3963 | 4.05e5 | inactive
CG33093 | DRSC15775 | – | – | 4583 | 3.99e5 | inactive
Adgf-B (Adenosine deaminase-related growth factor B) | DRSC10568 | – | – | 7627 | 4.08e5 | inactive
Hr3 (Hormone receptor 3) | DRSC06118 | – | – | 4107 | 1.81e5 | inactive
Hr3 (Hormone receptor 3) | DRSC07441 | – | reporter ratio raised past the hit cutoff | 10213 | 4.12e5 | inactive
CG15764 | DRSC18070 | – | – | 5827 | 2.74e5 | inactive
CG31975 + ovm | DRSC00323 | – | – | 7015 | 3.76e5 | inactive
CG9396 | DRSC16487 | – | – | 6846 | 5.03e5 | inactive
CG32454 | DRSC11652 | – | – | 8879 | 2.97e5 | inactive
CG13814 (retired record) | DRSC10069 | – | – | 8332 | 4.11e5 | inactive
CG8281 | DRSC10976 | – | – | 7039 | 4.35e5 | inactive
CG14711 + Zaf1 | DRSC14934 | – | – | 6235 | 3.46e5 | inactive
CG11703 | DRSC14356 | – | – | 8527 | 3.50e5 | inactive
CG10140 | DRSC09704 | – | – | 5684 | 2.96e5 | inactive
CG12917 | DRSC06231 | – | – | 6800 | 4.30e5 | inactive
CG14605 | DRSC12549 | – | – | 6927 | 3.66e5 | inactive
Mst84Db (Male-specific RNA 84Db) | DRSC12542 | – | – | 7874 | 4.99e5 | inactive
Mst84Db (Male-specific RNA 84Db) | DRSC12598 | – | – | 7099 | 5.75e5 | inactive
Mst84Db (Male-specific RNA 84Db) | DRSC29236 | – | reporter ratio lowered past the hit cutoff | – | – | inactive
CG33771 | DRSC11718 | – | – | 4990 | 5.21e5 | inactive
CG5021 | DRSC10469 | – | – | 5619 | 3.27e5 | inactive
CG4558 | DRSC18369 | reporter ratio lowered past the hit cutoff | – | 3863 | 4.13e5 | inactive
PIG-Q (Phosphatidylinositol glycan anchor biosynthesis class Q) | DRSC19138 | – | – | 5303 | 3.70e5 | inactive
U2A | DRSC06445 | reporter ratio lowered past the hit cutoff | – | 5163 | 6.44e5 | active
RpS15Ab + RpS15Aa | DRSC06129 | – | – | 6271 | 3.20e5 | inactive
RpS15Ab + RpS15Aa | DRSC19831 | – | – | 4588 | 2.78e5 | inactive
mRpL3 (mitochondrial ribosomal protein L3) | DRSC20100 | – | – | 4371 | 4.42e5 | inactive
abd-A (abdominal A) | DRSC13179 | – | – | 3508 | 3.02e5 | inactive
abd-A (abdominal A) | DRSC16897 | reporter ratio raised past the hit cutoff | reporter ratio raised past the hit cutoff | 6238 | 2.24e5 | inactive
abd-A (abdominal A) | DRSC23013 | – | – | 3415 | 2.80e5 | inactive
CG17233 | DRSC10259 | – | – | 6135 | 2.85e5 | inactive
CG2964 | DRSC00554 | – | – | 7075 | 4.59e5 | inactive
CG33012 | DRSC06287 | – | – | 6878 | 3.84e5 | inactive
CG33012 | DRSC06288 | – | – | 6914 | 4.22e5 | inactive
SMC1 (Structural maintenance of chromosomes 1) | DRSC16846 | – | – | 6031 | 2.97e5 | inactive
CG31908 | DRSC21864 | – | – | 10070 | 6.13e5 | inactive
CG31908 | DRSC23243 | reporter ratio lowered past the hit cutoff | – | 2607 | 3.25e5 | inactive
AdoR (Adenosine receptor) | DRSC16556 | – | – | 8402 | 4.26e5 | inactive
SdhD (Succinate dehydrogenase, subunit D) | DRSC14215 | – | – | 6774 | 4.90e5 | inactive
Task7 (TWIK-related acid-sensitive K[+] channel 7) | DRSC16477 | – | – | 7665 | 3.68e5 | inactive
CG34299 | DRSC13974 | – | – | 6678 | 4.07e5 | inactive
Cpr64Aa (Cuticular protein 64Aa) | DRSC08460 | – | – | 6023 | 3.51e5 | inactive
Thor | DRSC00770 | – | – | 14301 | 2.84e5 | inactive
